# Measured values: PubChem BioAssay AID540276 (National Center for Advancing Translational Sciences (NCATS), 2011)
# The whole screen tested about 300,000 compounds, of which about 5,400 (1.8%) were called active. The inconclusive results got no clear call from the source; some entries with a clear call stand among them for comparison. Calls follow the shape of the full dose curve; tested in HEK293 cells. A potency beside an inconclusive call is a rough fit, not a confirmed value. Non-standard residues stand in square brackets, D forms with d. Residues, ends and D or L forms follow the SMILES beside them. ξ: configuration not given here. *: point of attachment. ξArg(NO2) = N=C(NCCCC(N)C(=O)O)N[N+](=O)[O-]; Bz = O=C(c1ccccc1)*
# Test: qHTS for inhibitors of binding or entry into cells for Marburg Virus
# Conditions: Marburg virus pseudotyped entry inhibition, cell reporter; series mostly up to 37.8 µM
# Potency is read from the fitted curve at half-maximal effect.
row,SMILES,Potency
1,O=C(CSc1nnnn1-c1ccccc1)Nc1nc(-c2ccccc2)ns1,"inconclusive: 2.51 µM [activator, partial curve, poor fit]"
2,COc1ccc(-n2c(=S)[nH]c3cc(C(=O)NCCCN4CCCC4=O)ccc3c2=O)c(OC)c1,"inconclusive: 0.326 µM [inhibitor, full curve, poor fit]"
3,Cn1c(C(=O)NCc2cccc(Cl)c2)cc2oc3ccccc3c21,"inconclusive: 4.47 µM [inhibitor, full curve, poor fit]"
4,CCSc1ccc(C(=O)Nc2cccc(C)n2)cc1[N+](=O)[O-],inactive
5,O=C(/C=C/c1cccc([N+](=O)[O-])c1)Nc1cccc(NC(=O)c2cccs2)c1,"inconclusive: 18.3 µM [inhibitor, partial curve, poor fit]"
6,COc1cc(Cl)c(C)cc1NC(=O)CSc1sc2c(O)cc(=O)[nH]c2c1C#N,"inconclusive: 3.55 µM [activator, single point]"
7,COc1ccc(-c2csc(NC(=O)CSc3nc(SC)ns3)n2)cc1,inactive
8,CCOC(=O)C(C(=O)OCC)C(Nc1cccc(Br)c1)c1ccccc1 (stereo not given),inactive
9,Cc1ccc(OCC(=O)N2CCN(S(=O)(=O)c3ccccc3)CC2)c([N+](=O)[O-])n1,"inconclusive: 31.6 µM [activator, single point]"
10,Cc1nc2c(c(C)nn2C(C)(C)C)c(C)c1CCC(=O)Nc1ccc(F)cc1,"inconclusive: 35.5 µM [activator, single point]"
11,COc1ccc(CNC(C)CCc2ccccc2)cc1 (stereo not given),"inconclusive: 31.6 µM [inhibitor, partial curve, poor fit]"
12,CC1CCCCN1C(=O)CSc1nc(C2CC2)nc2c1cnn2-c1ccccc1 (stereo not given),"inconclusive: 29.1 µM [inhibitor, single point]"
13,N/C(=N\[N+](=O)[O-])NCCCC(NC(=O)CNC(=O)c1ccccc1)C(=O)O (stereo not given) (Bz-Gly-[ξArg(NO2)]-OH),"inconclusive: 12.6 µM [activator, partial curve, poor fit]"
14,O=C(NCCc1ccccn1)c1ccc(NS(=O)(=O)c2ccc(F)cc2)cc1,"inconclusive: 11.2 µM [activator, single point]"
15,N/N=C(\Cc1cscn1)c1ccc(O)cc1O,inactive
16,CCOc1nc(C)ccc1-c1noc(-c2ccccn2)n1,"inconclusive: 35.5 µM [activator, single point]"
17,CCC(Sc1nc2n[nH]c(C)c2c(=N)n1-c1cc(Cl)ccc1C)C(=O)N1CCOCC1 (stereo not given),"inconclusive: 7.08 µM [inhibitor, partial curve, poor fit]"
18,CCC(=O)NC(=S)Nc1ccc(N2CCN(C(=O)c3ccc(Cl)cc3)CC2)cc1,"inconclusive: 5.62 µM [activator, single point]"
19,CCOc1ccc(CNC(=O)CSc2c3c(nc4ccc(Cl)cc24)CCCC3)cc1,"inconclusive: 1.58 µM [activator, partial curve, poor fit]"
20,COc1ccc(S(=O)(=O)NC2CCSc3ccccc32)cc1OC (stereo not given),inactive
21,O=C(C[n+]1cccc(/C=N/O)c1)N1CCCc2ccccc21,"inconclusive: 5.62 µM [inhibitor, single point]"
22,COc1ccc(NC(=O)CSc2nnc(COc3ccccc3)n2Cc2ccco2)cc1OC,inactive

# Looked up by structure from the entries so far (three):
row,SMILES,Potency
15,N/N=C(\Cc1cscn1)c1ccc(O)cc1O,inactive
4,CCSc1ccc(C(=O)Nc2cccc(C)n2)cc1[N+](=O)[O-],inactive
9,Cc1ccc(OCC(=O)N2CCN(S(=O)(=O)c3ccccc3)CC2)c([N+](=O)[O-])n1,"inconclusive: 31.6 µM [activator, single point]"

# Following part.

row,SMILES,Potency
1,COc1ccccc1N1CCN(c2cc(C)nc3nncn23)CC1,inactive
2,COc1ccc(C(C)=O)cc1CN1C(=O)NC2(CCCCCC2)C1=O,inactive
3,CCOc1ccc(N=c2scc(-c3ccccc3)n2CCO)cc1,"inconclusive: 25.9 µM [inhibitor, partial curve, poor fit]"
4,O=C(Nc1nc(-c2ccc(S(=O)(=O)N3CCCC3)cc2)cs1)c1cccs1,"inconclusive: 10 µM [inhibitor, partial curve, poor fit]"
5,O=C(Cc1ccccc1)Nc1c[nH]c(=O)[nH]c1=O,"inconclusive: 0.631 µM [inhibitor, partial curve, poor fit]"
6,CN1CCN(c2nc(Nc3ccccc3)nc(N)c2[N+](=O)[O-])CC1,"inconclusive: 35.5 µM [inhibitor, single point]"
7,Cc1ccc(S(=O)(=O)N(C)CC(=O)OCC(=O)c2c(N)n(C)c(=O)n(C)c2=O)cc1,"inconclusive: 1.58 µM [inhibitor, partial curve, poor fit]"
8,Cc1ccccc1CN1C[C@@H]2C[C@@H](c3cn[nH]c3-c3ccc(F)cc3)N3CCC[C@@]23C1=O,"inconclusive: 10 µM [inhibitor, partial curve, poor fit]"
9,O=C(O)[C@H]1CN(CCCP(=O)(O)O)CCN1,"inconclusive: 2.06 µM [activator, partial curve, poor fit]"
10,CCC(=O)c1ccc(OCC(=O)NCc2ccccc2CN2CCCC2)cc1,"inconclusive: 5.62 µM [activator, single point]"
11,CCOc1ccc(N/C=C/C(=O)c2ccccc2)cc1,"inconclusive: 1 µM [inhibitor, full curve, poor fit]"
12,CC/C(=N\NC(N)=O)c1ccc(OC(F)F)cc1,inactive
13,Cc1cc(C([O-])=C(C(=S)Nc2ccccc2)[n+]2ccccc2)c(C)n1-c1ccccc1,"inconclusive: 5.62 µM [activator, partial curve]"
14,O=C(N=Nc1c(O)n(Cc2ccccc2)c2ccccc12)c1cc2ccccc2cc1O,"inconclusive: 25.1 µM [activator, partial curve, poor fit]"
15,CC(NCc1ccc(Cl)c(Cl)c1)C(O)c1ccccc1 (stereo not given),"inconclusive: 29.1 µM [inhibitor, single point]"
16,Nn1c(SCc2c(F)cccc2F)nnc1-c1ccccn1,"inconclusive: 0.562 µM [activator, full curve, poor fit]"
17,Cc1noc(C)c1S(=O)(=O)Nc1ccc(C(=O)N2CCN(c3ccc(Cl)cc3)CC2)cc1,"inconclusive: 0.631 µM [activator, single point]"
18,CCN(CC)S(=O)(=O)c1ccc2c(c1)nc(SCn1nnc3ccccc3c1=O)n2CC,"inconclusive: 4.61 µM [inhibitor, partial curve, poor fit]"
19,CCN1C(=O)c2ccccc2S(=O)c2ccc(C(=O)NCc3ccc(Cl)cc3)cc21 (stereo not given),inactive
20,Cc1ccc(SCC(=O)Nc2ccc3c(c2)C(=O)NC3=O)cc1,inactive
21,O=C(Cn1cc(C(=O)c2cccs2)c2ccccc21)Nc1ccc(Br)cc1,inactive
22,Cc1cc(N2CCCCC2)nc2ccc(NC(=O)CCC(=O)NCCC(C)C)cc12,"inconclusive: 1.64 µM [activator, partial curve, poor fit]"

row,SMILES,Potency
1,O=C(NC(=S)Nc1ccc2c(c1)C(=O)c1ccccc1C2=O)c1ccc(F)cc1,inactive
2,O=C(/C=C/c1cn(-c2ccccc2)nc1-c1cccc(Cl)c1)N1CCN(c2ccccn2)CC1,"inconclusive: 7.08 µM [inhibitor, partial curve, poor fit]"
3,COc1ccc(-c2cc(C)no2)cc1S(=O)(=O)NCCc1ccco1,"inconclusive: 20 µM [inhibitor, partial curve, poor fit]"
4,Cc1cc(Nc2c(C)cccc2C)n2nc(C)nc2n1,inactive
5,CCN(CC)S(=O)(=O)c1ccc(C(=O)Nc2cc(C)on2)cc1,inactive
6,O=C(NCc1cccc(Cl)c1)c1ccc2c(c1)OCO2,inactive
7,Cc1ccc(S(=O)(=O)N2CCOCC2)cc1NC(=O)c1cc2c(s1)CCC2,inactive
8,Cc1cccc(N(C(=O)Cn2nnc3ccccc32)C(C(=O)NCc2ccco2)c2ccncc2)c1C (stereo not given),"inconclusive: 7.08 µM [inhibitor, partial curve, poor fit]"
9,CCN(CC)CCCNC(=O)Cn1cnc2sc(C)c(S(=O)(=O)N3CCC(C)CC3)c2c1=O,"inconclusive: 22.4 µM [inhibitor, single point]"
10,COc1ccc(OC)c(C2=Nn3c(nnc3C3CCCCC3)SC2)c1,"inconclusive: 29.1 µM [inhibitor, single point]"
11,C[C@@H](C(=O)Nc1nc2ccc(F)cc2s1)N1C(=O)C2CC=CCC2C1=O (stereo not given in full),inactive
12,O=C(Cc1ccccc1)Nc1cccc(N2C(=O)C=CC2=O)c1,"inconclusive: 16.4 µM [inhibitor, partial curve, poor fit]"
13,O=C(Oc1cccc2cccnc12)c1ccc2c(c1)OCCO2,"inconclusive: 29.1 µM [inhibitor, single point]"
14,CCC(Sc1nc(=O)cc(N)n1CCc1ccccc1)C(=O)Nc1ccccc1C#N (stereo not given),"inconclusive: 17.8 µM [inhibitor, single point]"
15,COC(=O)c1c(C)sc(-c2c(-c3ccc(OC)c(F)c3)[nH]c3c2c(=O)n(C)c(=O)n3C)c1O,"inconclusive: 2 µM [activator, partial curve, poor fit]"
16,NNC(=O)c1cc2c(ccc3ccccc32)o1,inactive
17,O=C(Nc1ccc2c(c1)OCO2)c1cn(Cc2ccc(F)cc2)nn1,"inconclusive: 31.6 µM [inhibitor, single point]"
18,CCSc1nc2ccccc2c(OCc2cc(C(=O)OC)ccc2OC)c1C(=O)OC,"inconclusive: 12.6 µM [inhibitor, partial curve, poor fit]"
19,Cn1c(N)c(S(=O)(=O)NCc2ccccc2Cl)c(=O)n(C)c1=O,"inconclusive: 3.55 µM [inhibitor, partial curve, poor fit]"
20,Cc1cnc(NC(=O)Cc2ccc(C)c(C)c2)s1,"inconclusive: 8.91 µM [inhibitor, partial curve, poor fit]"
21,CN(C)CCNC(=O)CNC(=S)N(CCCN1CCOCC1)Cc1cccs1,"inconclusive: 20 µM [activator, single point]"
